Data on 13 sequences can be found in the supplement of paper PMC10338343.

± gives the standard deviation. This is a selection; strong and weak results do not stand in their true shares. Many of these values have a large error. The list shows a part of the results.

Assay [1] relates to MILI (PIWIL2) piRISC loaded with L1MC piRNA (26 nt). Nature of the assay: pre-steady-state target cleavage rate (min^-1); higher = faster piRNA-guided slicing of the target. The conditions noted are these: guide: L1MC piRNA 5'p-UAACUAAAUACUAUGCAAGCUGUAGG
The essentials: (§1)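 The pre-steady-state cleavage rate came from a burst-and-steady-state fit to pooled data from three Cleave-'n-Seq trials, in which uncleaved targets were sequenced and normalised to depth and to weakly complementary targets. Each reaction held 0.1 nM transcribed, DNA-blocked target RNA library and 1 nM active affinity-purified piRISC carrying one synthetic guide, with or without 500 nM GTSF1 partner protein, in HEPES–potassium acetate buffer at 33 °C for 0–8 or 0–960 min. k3 was capped at 0.0001 min^-1.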

The subject of assay [2] is MIWI (PIWIL1) piRISC loaded with L1MC piRNA (30 nt). Described as above. The conditions noted are these: guide: L1MC piRNA 5'p-UAACUAAAUACUAUGCAAGCUGUAGGUCCU; auxiliary factor: none (no GTSF1). Summed up: as §1
Assay [3] relates to EfPiwi piRISC loaded with L1MC piRNA (26 nt). Nature of the assay: pre-steady-state target cleavage rate (min^-1); guide: L1MC piRNA 5'p-UAACUAAAUACUAUGCAAGCUGUAGG; MIWI and MILI are mouse PIWI proteins and EfPiwi is from a freshwater sponge; tags in brackets are library labels; higher = faster piRNA-guided slicing of the target. Summed up: as §1
Setting [4] is: auxiliary factor: 500 nM mouse GTSF1.
[5] abbreviates: auxiliary factor: none (no GTSF1).
[6] abbreviates: auxiliary factor: 500 nM Ephydatia muelleri Gtsf1.
[7] abbreviates: auxiliary factor: none (no Gtsf1).

In the case of UCCUGGAUGUGCUUGCAUAGUAUAUACUUA, the “pre-steady-state target cleavage rate” value turned out to be 0.0036 ± 0.0047 in assay [1] (setting [4]); 0.000837 ± 0.0077 in assay [1] (setting [5]); 0.00231 ± 0.0038 in assay [2]; 0.000307 ± 0.019 in assay [3] (setting [6]); 0.000501 ± 0.013 in assay [3] (setting [7]).

With UCCUGGAUGUCGAAGCAUUGUAUUUAGUUA, the “pre-steady-state target cleavage rate” value in assay [1] (setting [4]) was 0.0024 ± 0.0036; in assay [1] (setting [5]) it was 0.000714 ± 0.0057; in assay [2], 0.00042 ± 0.012; in assay [3] (setting [6]) it was 0.000685 ± 0.0069; in assay [3] (setting [7]) it was 0.000302 ± 0.018.

For the sequence UCCUGGAUGUCCUAGCAUACUAUUUAGUUA, the “pre-steady-state target cleavage rate” value in assay [1] (setting [4]) came to 0.0115 ± 0.0063; in assay [1] (setting [5]), 0.00175 ± 0.0035; in assay [2], 0.00106 ± 0.0062; in assay [3] (setting [6]), 0.000679 ± 0.0048; in assay [3] (setting [7]) it was 0.000479 ± 0.012.

Turning to UCCUGGAUCAGGUUGCAUAGUAUUUACAAA, the “pre-steady-state target cleavage rate” value worked out at 0.0312 ± 0.011 in assay [1] (setting [4]); 0.00206 ± 0.003 in assay [1] (setting [5]); 0.00207 ± 0.0043 in assay [2]; 0.00151 ± 0.0025 in assay [3] (setting [6]); 0.000154 ± 0.053 in assay [3] (setting [7]).

On to UCCUCCUACAGCUUGCAUAGUAUAAUGUAA, for which the “pre-steady-state target cleavage rate” value in assay [1] (setting [4]) was found to be 0.046 ± 0.014; in assay [1] (setting [5]) it was 0.000639 ± 0.0098; in assay [2], 0.00194 ± 0.0029; in assay [3] (setting [6]), 0.00413 ± 0.0027; in assay [3] (setting [7]) it was 0.00014 ± 0.019.

Consider UCCUGGAAGUCCUUGCAUAGUAUUUACAAA, for which the “pre-steady-state target cleavage rate” value in assay [1] (setting [4]) is 0.0598 ± 0.018; in assay [1] (setting [5]), 0.001 ± 0.0066; in assay [2] it was 0.00154 ± 0.0049; in assay [3] (setting [6]) it was 0.00121 ± 0.0048; in assay [3] (setting [7]), 0.000284 ± 0.019.

With UCCUGGUACAGCUUGCUAUGUAUUUAGUAA, the “pre-steady-state target cleavage rate” value came out at 0.00603 ± 0.0046 in assay [1] (setting [4]); 0.000973 ± 0.0079 in assay [1] (setting [5]); 0.00245 ± 0.0026 in assay [2]; 0.00136 ± 0.0062 in assay [3] (setting [6]); 0.000356 ± 0.018 in assay [3] (setting [7]).

Take UCCUGGAUGUGCAUGCUUAGUAUUUAGUUA: the “pre-steady-state target cleavage rate” value in assay [1] (setting [4]) was 0.0349 ± 0.011; in assay [1] (setting [5]), 0.0103 ± 0.0032; in assay [2], 0.00233 ± 0.0033; in assay [3] (setting [6]) it was 0.000684 ± 0.0063; in assay [3] (setting [7]), 0.000524 ± 0.018.

In the case of UCCUGGAACAGCUUGCAUAGAUUUUAGUAA, the “pre-steady-state target cleavage rate” value in assay [1] (setting [4]) stood at 0.0259 ± 0.0091; in assay [1] (setting [5]), 0.00135 ± 0.0034; in assay [2], 0.00217 ± 0.0042; in assay [3] (setting [6]) it was 0.00282 ± 0.0032; in assay [3] (setting [7]) it was 0.000969 ± 0.011.

As for UCCUGGAUGUCGUUGCAAAGUAAUUAGUUA, the “pre-steady-state target cleavage rate” value in assay [1] (setting [4]) turned out to be 0.00144 ± 0.0073; in assay [1] (setting [5]), 0.000922 ± 0.0072; in assay [2] it was 0.000162 ± 0.019; in assay [3] (setting [6]), 0.00126 ± 0.009; in assay [3] (setting [7]) it was 0.000494 ± 0.016.

Turning to UCCUGGAAGUCCUUGCAUAGUAUUUUCAAA, the “pre-steady-state target cleavage rate” value in assay [1] (setting [4]) is 0.0197 ± 0.0079; in assay [1] (setting [5]) it was 0.000586 ± 0.0086; in assay [2], 0.000652 ± 0.009; in assay [3] (setting [6]) it was 0.000448 ± 0.0075; in assay [3] (setting [7]), 0.000157 ± 0.037.

With UCCUGGAACUCCUUGCAUAGUAUUUUCAAA, the “pre-steady-state target cleavage rate” value in assay [1] (setting [4]) was determined as 0.0315 ± 0.0074; in assay [1] (setting [5]), 0.000881 ± 0.006; in assay [2], 0.00101 ± 0.0052; in assay [3] (setting [6]), 0.000574 ± 0.0067; in assay [3] (setting [7]) it was 0.000381 ± 0.014.

For the sequence UCCUGGAUGAGCUACCAUAGUAUUUAGUUA, the “pre-steady-state target cleavage rate” value turned out to be 0.101 ± 0.018 in assay [1] (setting [4]); 0.00301 ± 0.0025 in assay [1] (setting [5]); 0.000371 ± 0.0064 in assay [2]; 0.00141 ± 0.0042 in assay [3] (setting [6]); 0.000673 ± 0.012 in assay [3] (setting [7]).
